Measured values taken from patent publication US20160272716A1 (AGENSYS, published 2016).
Results are given in words; binding and its absence hold for the method and conditions named. Some results given as binding are weak or reduced against the parent protein; the word gives no strength.

The chains behind the UniProt entries cited, without tags or fusion partners. Where a name states a change or a piece, a line headed by the entry shows the natural chain unless it says otherwise.
UniProt P36888: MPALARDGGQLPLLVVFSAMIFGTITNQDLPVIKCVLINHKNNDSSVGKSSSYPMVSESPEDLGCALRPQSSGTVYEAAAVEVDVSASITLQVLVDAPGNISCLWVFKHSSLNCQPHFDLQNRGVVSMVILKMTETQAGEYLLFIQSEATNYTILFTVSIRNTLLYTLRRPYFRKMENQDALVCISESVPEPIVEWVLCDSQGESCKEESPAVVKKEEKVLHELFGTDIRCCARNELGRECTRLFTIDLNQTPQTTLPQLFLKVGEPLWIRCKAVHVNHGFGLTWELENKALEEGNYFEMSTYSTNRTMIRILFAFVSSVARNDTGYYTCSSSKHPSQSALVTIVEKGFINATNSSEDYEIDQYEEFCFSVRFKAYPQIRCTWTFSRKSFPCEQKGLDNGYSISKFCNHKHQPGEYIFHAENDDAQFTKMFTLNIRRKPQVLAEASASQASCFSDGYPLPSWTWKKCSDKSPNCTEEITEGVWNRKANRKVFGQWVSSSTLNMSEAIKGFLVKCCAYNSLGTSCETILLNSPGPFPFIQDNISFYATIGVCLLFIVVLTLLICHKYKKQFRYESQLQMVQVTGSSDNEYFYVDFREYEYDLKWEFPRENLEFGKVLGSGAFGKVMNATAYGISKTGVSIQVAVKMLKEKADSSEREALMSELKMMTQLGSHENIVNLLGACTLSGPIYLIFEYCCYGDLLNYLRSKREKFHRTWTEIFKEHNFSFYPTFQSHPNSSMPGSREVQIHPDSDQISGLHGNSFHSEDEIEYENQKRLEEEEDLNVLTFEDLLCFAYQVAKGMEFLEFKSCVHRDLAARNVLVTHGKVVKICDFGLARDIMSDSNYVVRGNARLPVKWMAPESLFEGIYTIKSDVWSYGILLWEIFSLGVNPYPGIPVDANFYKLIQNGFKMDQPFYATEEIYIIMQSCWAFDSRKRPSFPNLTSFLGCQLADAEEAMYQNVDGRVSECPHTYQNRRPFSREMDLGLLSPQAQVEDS

How the values were obtained:
[1] = molecular target: Recombinant human FLT3-Fc (R and D Systems) (human) (UniProt P36888); experiment: Luminex bead assay: biotinylated FLT3 ligand (5 ng/mL) on Flt3-Fc chimera immobilised on microspheres, detected with streptavidin-PE
[2] = molecular target: Recombinant human FLT3-Fc (R and D Systems) (human) (UniProt P36888); experiment: Luminex: biotinylated ligand on FLT3-Fc microspheres, Streptavidin-R-Phycoerythrin
[3] = molecular target: T1, human FLT3 expressed on the cell surface (human, UniProt P36888 27-993); experiment: competition FACS on MOLM-13 cells: FL titrated 0.1 to 100 ng/ml, 30 min pre-incubation; displaced antibody: biotinylated cHv62-1b37.1 at 10 ug/ml
T1 construct: FLT3 on human leukemia cell lines, on recombinant cells and on primary blood cells; also called Flk2; STK1
Method: In another experiment, The ability of anti-FLT3 antibodies, CHv62.21 and v62-1b37.1, to bind to FLT3 expressed on the surface of human leukemia MOLM-13 cell line was evaluated in the presence of human FLT3 Ligand (hFL). Isotype control antibody, AGS91.1-pAF, was used as a negative control.
Briefly, The MOLM-13 cells were seeded at a density of 50,000 cells per well onto round-bottom 96 well plates. The plates were washed one time with 150 μl per well of PBS. The cells were Fc blocked (20 μg/mL) at a volume of 50 μl per well in FACS buffer (PBS+2% FBS+0.1% sodium azide) to reduce non-specific binding. Cells were incubated at 4° C. for 15 minutes. Human FLT3 Ligand was added to appropriate wells at 100 ng/mL and serially diluted 1:2 across the plate for a total of 11 points. Cells were incubated for 30 minutes at 4° C. prior to adding biotinylated FLT3 antibodies. After incubation, the biotinylated anti-FLT3 antibodies and isotype control antibody were prepared in FACS buffer at 10 μg/mL and 1 μg/mL and 25 μl was added to wells and incubated for 1 hour at 4° C. Cells were washed two times with FACS buffer and Streptavidin-PE (Jackson immune) was added 100 μl per well and incubated for 1 hour at 4° C. Cells were washed two times with FACS buffer and read on the Attune Cytometer (Life technologies) and analyzed in FlowJo (Tree Star) software.

binding [1]: binds
binding [2]: binds
binding [3]: binds
B1: human FLT3 ligand (ligand, UniProt P49771 27-185, looked up)
chain: TQDCSFQHSPISSDFAVKIRELSDYLLQDYPVTVASNLQDEELCGGLWRLVLAQRWMERLKTVAGSKMQGLLERVNTEIHFVTKCAFQPPPSCLRFVQTNISRLLQETSEQLVALKPWITRQNFSRCLELQCQPDSSTLPPPWSPRPLEATAPTAPQPP
modifications: biotinylated (Sulfo-NHS-LC-Biotin) in the Luminex assay
notes: later experiments say human FLT3 ligand; Treated as one molecule; also called hFL
